From article PMC11077084, “Biochemical characterization of the meiosis-essential yet evolutionarily divergent topoisomerase VIB-like protein MTOPVIB from Arabidopsis thaliana” (Nucleic Acids Research, 2024)

Experiments:
[1] = target: T1, MTOPVIB (Arabidopsis thaliana) (UniProt Q5Q0E6); assay: EMSA; conditions: minimal binding at 2 uM MTOPVIB, 80 nM DNA; 23 C, 30 min, 0.8% agarose-TBE at 4 C (6% PAGE for the competition); recombinant protein; residues 1-473; single-stranded DNA
T1 sequence (looked up): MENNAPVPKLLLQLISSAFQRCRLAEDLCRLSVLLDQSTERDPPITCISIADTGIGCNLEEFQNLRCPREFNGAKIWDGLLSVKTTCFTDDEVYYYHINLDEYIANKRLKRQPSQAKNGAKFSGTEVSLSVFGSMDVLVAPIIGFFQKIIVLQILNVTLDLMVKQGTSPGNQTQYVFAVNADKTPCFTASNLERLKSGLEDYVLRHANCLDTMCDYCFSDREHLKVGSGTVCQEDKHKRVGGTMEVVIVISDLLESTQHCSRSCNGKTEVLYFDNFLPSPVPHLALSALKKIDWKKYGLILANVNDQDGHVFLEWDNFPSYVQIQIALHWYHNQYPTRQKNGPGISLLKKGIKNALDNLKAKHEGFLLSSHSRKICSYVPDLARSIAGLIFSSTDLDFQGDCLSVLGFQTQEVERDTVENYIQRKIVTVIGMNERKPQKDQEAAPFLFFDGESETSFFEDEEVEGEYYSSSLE

[2] = target: T1, MTOPVIB (Arabidopsis thaliana); assay: competition with a labelled probe; conditions: co-incubated with 80 bp dsDNA; 23 C, 30 min, 0.8% agarose-TBE at 4 C (6% PAGE for the competition); recombinant protein; residues 1-473; single-stranded DNA

Row | Sequence | binding result [1] | binding result [2]
1 | TAAATAAGATAAGGATAATACAAAATAAGTAAATGAATAAACAGAGAAAATAAAGTAAAGGATATAAAAAATGAACATAA [80 mer bottom-stranded ssDNA (Oligo 2)] | binds more weakly | 
2 | TTATGTTCATTTTTTATATCCTTTACTTTATTTTCTCTGTTTATTCATTTACTTATTTTGTATTATCCTTATCTTATTTA [80 mer top-stranded ssDNA (Oligo 1)] | binds more weakly | binds more weakly

Weaker means in comparison with the reference protein, sequence or condition of that experiment. Where a protein sequence is shown, tags need not be part of it. For part of these data: The exact form of at least one protein or probe is not confirmed.
